The whole screen tested about 31,000 sequences, of which about 1,400 (4.5%) were called active.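 How the source made its calls: active means median seed-adjusted z-score above 1 or below -1; inactive means the rest.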 The list shows a part of the results.
Experiment: Novel Modifiers of Survival Motor Neuron (SMN) Protein: Gene Identification via Genome-wide siRNA Screen;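 further: luminescence tracks full-length SMN protein made from the SMN2 reporter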
Settings: HEK293T SMN2-luciferase reporter, siRNA knockdown, 72 h; actives lie on both sides
Summary of the method: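 HEK293T cells stably expressing an SMN2 splicing/cDNA-luciferase reporter were reverse-transfected with a druggable-genome siRNA library and read by luminescence at 72 hours; hits defined by MAD score above 1.0 or below -1.0.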
In the case of GCGAAAAGAGUAUCUAGAATT against CLOCK, the median seed-adjusted z-score is reported as inactive: -0.338. For GGGAAAGAGUGUGUUCUGATT against HSD11B1L, the median seed-adjusted z-score was inactive: -0.00448. In the case of GCAAGAACCUCAGUUAUGATT against CDH16, the median seed-adjusted z-score is reported as inactive: -0.209. In the case of GCUCGAUUUUUGAUCAGUUTT against MPP1, the median seed-adjusted z-score is reported as inactive: -0.0762. In the case of GGUCCUAACUCACUACAAATT against PCDHGB2, the median seed-adjusted z-score is reported as inactive: -0.429. In the case of CAACAGCUGUUAAUUGGAATT against VNN2, the median seed-adjusted z-score is reported as inactive: -0.583. In the case of GAAAGAGCAAUGAUUUAUUTT against RFPL4B, the median seed-adjusted z-score is reported as inactive: 0.92. With CCAUGUCUUUCUAUCGCAATT against PLD2 the median seed-adjusted z-score was inactive: -0.743. In the case of GGACAGACAAGGCAGUUAATT against PRDM4, the median seed-adjusted z-score is reported as inactive: 0.0804. For CGUUUACCAUGACCAUCGATT against APOB, the median seed-adjusted z-score was inactive: -0.0862. In the case of CACCGGACCUAUGCAAUUATT against MS4A3, the median seed-adjusted z-score is reported as inactive: 0.189. With GGUGCACUGCAGUUCAACATT against PIK3CA the median seed-adjusted z-score was inactive: 0.0823. For GACAUAGGUUGGAGAAUAATT against PXK, the median seed-adjusted z-score was inactive: -0.4. For AACUCUAUCAAGUACAGUATT against CECR1, the median seed-adjusted z-score was inactive: 0.00187. For GAGAGCUGAUUGGAGAUUATT against CDC25B, the median seed-adjusted z-score was inactive: -0.0158. With GGAGGGUCCUUAUCGUAGATT against HDAC6 the median seed-adjusted z-score was inactive: 0.0457. For CUACUGAUCACAUUCCUAUTT against GFPT1, the median seed-adjusted z-score was inactive: 0.416. For GCAGUGAAGUUGACAGAUUTT against ZBTB37, the median seed-adjusted z-score was inactive: -0.219. In the case of UCAUGUCAAUAUUUGGUGATT against UGT2B7, the median seed-adjusted z-score is reported as inactive: 0.313. With GAUGAAAGCAUAUACAGCATT against CCR4 the median seed-adjusted z-score was inactive: 0. In the case of GGAAAUUAGAUACCGAGGATT against SLC25A30, the median seed-adjusted z-score is reported as inactive: 0. For GGCUUGUGCAGAGAUGAUATT against SERPINI2, the median seed-adjusted z-score was inactive: -0.174. For AGAUCGUGCAGGACGGUGATT against RBP1, the median seed-adjusted z-score was inactive: 0.321. With CGAGUGUUUGCUUAACGAATT against ADAMTS9 the median seed-adjusted z-score was inactive: 0.103. With GAAGCUCUAGAACCCAAUATT against NPHP1 the median seed-adjusted z-score was inactive: -0.0667. In the case of AGAUAGAGAAUGCUGAAUATT against DDAH2, the median seed-adjusted z-score is reported as inactive: -0.301. In the case of GACUCUAAUAGGAUUGGUATT against NFX1, the median seed-adjusted z-score is reported as inactive: -0.256. For GCCUCUACGGAUCAGUUAATT against RAB27A, the median seed-adjusted z-score was inactive: -0.134. In the case of GAUGAAGUAAUAGGAGUUATT against EIF4E3, the median seed-adjusted z-score is reported as inactive: 0. With CCAGGAGAUCUUUGCCUUUTT against SLC4A3 the median seed-adjusted z-score was inactive: -0.7. In the case of AGUGUCAUCUCAACUCGAATT against NFIB, the median seed-adjusted z-score is reported as inactive: 0.1. With GGUGAUGAGAUGACCCGUATT against IDH2 the median seed-adjusted z-score was inactive: 0.0592. In the case of GUGCAUUGAUGAGCAAUUATT against TRIM29, the median seed-adjusted z-score is reported as inactive: 0.331. With GGAGACAUCUGACCCAGCATT against ARHGAP9 the median seed-adjusted z-score was inactive: 0. With AGGAGAUUCUGACCAAUGATT against DNAJC12 the median seed-adjusted z-score was inactive: 0.248. With GCAACUUCCUCUCCACUCUTT against ZDHHC18 the median seed-adjusted z-score was inactive: -0.309. With AGGUACUAUUUCUUGAUCATT against REXO4 the median seed-adjusted z-score was inactive: -0.166. In the case of GGAGUUAAACAUAGAUGUATT against COPS2, the median seed-adjusted z-score is reported as inactive: 0.202. For CUCAGAGAAUAAUCACAAATT against PER2, the median seed-adjusted z-score was inactive: -0.113. With CGGAAAAUCAGCAACAUCATT against EPS8L2 the median seed-adjusted z-score was inactive: -0.497. In the case of CGAGGAGCCUGCCUUCUUUTT against SSTR3, the median seed-adjusted z-score is reported as inactive: 0. In the case of GCAAGAAGGAUGAAUCGGATT against PBRM1, the median seed-adjusted z-score is reported as inactive: -0.118. In the case of GAGAUGAUCCUGAAACGCATT against ARL4C, the median seed-adjusted z-score is reported as inactive: -0.61. For AGGAGCUUGUUGAUCCCUATT against SLC7A8, the median seed-adjusted z-score was inactive: -0.134. For CACCAGCUGUUAUAUUAAATT against LHX8, the median seed-adjusted z-score was inactive: 0. With GGAAUGUCCAGAGAAGUUATT against ZNF670 the median seed-adjusted z-score was inactive: 0. With GGUUGAAGAGAGUAAAGAUTT against SNAP25 the median seed-adjusted z-score was inactive: 0. In the case of GGGUAUCCAUCAUCAAUCATT against WHSC1L1, the median seed-adjusted z-score is reported as inactive: -0.283. In the case of GCCCAACAAGUGUACGUUUTT against GLIS3, the median seed-adjusted z-score is reported as inactive: -0.00906. For CCAUCAUCCGAAACGGUCATT against ATP2B4, the median seed-adjusted z-score was inactive: 0. For GAUGUUCAGUCAAAGUUCATT against ZNF594, the median seed-adjusted z-score was inactive: 0.491. In the case of GGAUGGUCGGAUUCUGAAATT against ITPKC, the median seed-adjusted z-score is reported as inactive: 0.218. With GGUUCCAAGAGGAUGAAUATT against ZNF502 the median seed-adjusted z-score was inactive: 0.348. In the case of CCUUGCCUCUAUGAGAUCATT against CHCHD2, the median seed-adjusted z-score is reported as inactive: 0.0884.
